Here are results for 3 substances from PMC8748630.

Chains of the proteins cited; added tags and fusions are not shown.
UniProt Q96SW2: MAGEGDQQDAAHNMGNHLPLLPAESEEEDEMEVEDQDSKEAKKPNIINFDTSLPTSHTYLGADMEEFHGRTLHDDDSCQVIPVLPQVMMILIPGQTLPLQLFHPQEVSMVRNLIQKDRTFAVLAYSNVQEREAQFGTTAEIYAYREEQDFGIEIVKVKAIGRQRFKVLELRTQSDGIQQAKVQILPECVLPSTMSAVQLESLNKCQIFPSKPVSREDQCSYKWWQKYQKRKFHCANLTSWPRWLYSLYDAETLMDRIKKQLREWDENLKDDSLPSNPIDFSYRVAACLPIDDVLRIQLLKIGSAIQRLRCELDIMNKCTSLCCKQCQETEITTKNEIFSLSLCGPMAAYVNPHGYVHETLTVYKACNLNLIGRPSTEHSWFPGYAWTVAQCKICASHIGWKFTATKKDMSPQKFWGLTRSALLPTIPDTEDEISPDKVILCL
UniProt P11362: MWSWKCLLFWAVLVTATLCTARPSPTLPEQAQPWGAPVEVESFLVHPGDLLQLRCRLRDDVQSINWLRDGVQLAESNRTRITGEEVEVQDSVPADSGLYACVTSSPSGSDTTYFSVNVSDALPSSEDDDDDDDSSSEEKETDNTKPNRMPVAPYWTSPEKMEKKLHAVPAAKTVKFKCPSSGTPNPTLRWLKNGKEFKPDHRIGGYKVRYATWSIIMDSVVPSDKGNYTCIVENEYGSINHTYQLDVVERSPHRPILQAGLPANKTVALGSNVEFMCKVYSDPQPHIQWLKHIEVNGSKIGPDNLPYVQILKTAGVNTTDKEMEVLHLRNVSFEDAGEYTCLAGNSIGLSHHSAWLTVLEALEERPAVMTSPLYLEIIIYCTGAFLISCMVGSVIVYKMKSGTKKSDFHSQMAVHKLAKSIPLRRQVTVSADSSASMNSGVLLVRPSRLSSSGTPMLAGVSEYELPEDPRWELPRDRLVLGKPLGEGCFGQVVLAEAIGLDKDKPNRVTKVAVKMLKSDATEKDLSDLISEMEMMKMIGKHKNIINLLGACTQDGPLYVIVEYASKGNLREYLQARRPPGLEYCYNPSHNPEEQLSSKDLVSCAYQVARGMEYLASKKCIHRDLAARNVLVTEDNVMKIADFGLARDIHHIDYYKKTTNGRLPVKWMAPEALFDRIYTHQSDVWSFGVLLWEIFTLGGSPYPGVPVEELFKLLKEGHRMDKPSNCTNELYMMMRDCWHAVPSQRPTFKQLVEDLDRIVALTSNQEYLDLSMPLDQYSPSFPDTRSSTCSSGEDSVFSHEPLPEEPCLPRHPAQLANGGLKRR
UniProt Q5VZL5: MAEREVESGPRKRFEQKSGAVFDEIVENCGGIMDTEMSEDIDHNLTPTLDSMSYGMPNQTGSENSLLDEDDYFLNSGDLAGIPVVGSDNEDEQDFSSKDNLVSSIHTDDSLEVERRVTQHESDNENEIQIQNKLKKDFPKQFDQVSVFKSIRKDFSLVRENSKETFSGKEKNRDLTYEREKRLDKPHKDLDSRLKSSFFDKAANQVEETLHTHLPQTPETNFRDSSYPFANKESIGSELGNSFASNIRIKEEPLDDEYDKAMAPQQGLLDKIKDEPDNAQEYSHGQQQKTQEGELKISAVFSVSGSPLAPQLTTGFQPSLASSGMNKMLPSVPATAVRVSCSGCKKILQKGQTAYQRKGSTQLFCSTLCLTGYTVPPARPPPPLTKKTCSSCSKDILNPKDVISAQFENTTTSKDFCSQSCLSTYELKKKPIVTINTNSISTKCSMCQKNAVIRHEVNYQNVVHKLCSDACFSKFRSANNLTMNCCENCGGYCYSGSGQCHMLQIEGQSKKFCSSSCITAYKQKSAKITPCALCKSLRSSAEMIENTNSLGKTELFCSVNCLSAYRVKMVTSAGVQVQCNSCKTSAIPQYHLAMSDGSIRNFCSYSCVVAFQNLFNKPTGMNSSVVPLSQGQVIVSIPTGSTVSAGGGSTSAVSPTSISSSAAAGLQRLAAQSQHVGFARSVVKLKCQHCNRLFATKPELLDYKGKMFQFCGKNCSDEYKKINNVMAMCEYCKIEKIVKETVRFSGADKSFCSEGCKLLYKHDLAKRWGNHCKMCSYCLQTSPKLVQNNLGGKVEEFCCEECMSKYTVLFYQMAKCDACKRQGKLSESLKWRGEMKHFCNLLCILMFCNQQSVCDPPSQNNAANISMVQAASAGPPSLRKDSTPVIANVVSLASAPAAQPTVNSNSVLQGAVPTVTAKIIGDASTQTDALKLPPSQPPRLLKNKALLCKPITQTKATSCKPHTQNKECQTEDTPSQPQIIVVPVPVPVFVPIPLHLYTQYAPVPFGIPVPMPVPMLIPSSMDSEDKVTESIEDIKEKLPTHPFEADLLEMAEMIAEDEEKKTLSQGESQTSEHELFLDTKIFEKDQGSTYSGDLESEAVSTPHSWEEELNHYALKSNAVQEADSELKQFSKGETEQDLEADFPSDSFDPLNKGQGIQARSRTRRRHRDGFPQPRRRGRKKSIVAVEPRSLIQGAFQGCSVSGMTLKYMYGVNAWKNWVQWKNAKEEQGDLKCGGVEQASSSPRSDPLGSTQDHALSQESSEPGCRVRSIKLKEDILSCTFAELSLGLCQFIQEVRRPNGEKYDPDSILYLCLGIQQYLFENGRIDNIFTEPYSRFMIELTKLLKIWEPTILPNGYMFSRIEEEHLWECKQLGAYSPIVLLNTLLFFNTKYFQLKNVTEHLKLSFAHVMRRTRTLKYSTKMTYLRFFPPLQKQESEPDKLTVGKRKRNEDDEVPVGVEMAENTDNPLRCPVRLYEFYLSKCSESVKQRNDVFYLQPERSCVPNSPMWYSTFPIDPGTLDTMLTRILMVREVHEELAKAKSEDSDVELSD
UniProt Q9UEG4: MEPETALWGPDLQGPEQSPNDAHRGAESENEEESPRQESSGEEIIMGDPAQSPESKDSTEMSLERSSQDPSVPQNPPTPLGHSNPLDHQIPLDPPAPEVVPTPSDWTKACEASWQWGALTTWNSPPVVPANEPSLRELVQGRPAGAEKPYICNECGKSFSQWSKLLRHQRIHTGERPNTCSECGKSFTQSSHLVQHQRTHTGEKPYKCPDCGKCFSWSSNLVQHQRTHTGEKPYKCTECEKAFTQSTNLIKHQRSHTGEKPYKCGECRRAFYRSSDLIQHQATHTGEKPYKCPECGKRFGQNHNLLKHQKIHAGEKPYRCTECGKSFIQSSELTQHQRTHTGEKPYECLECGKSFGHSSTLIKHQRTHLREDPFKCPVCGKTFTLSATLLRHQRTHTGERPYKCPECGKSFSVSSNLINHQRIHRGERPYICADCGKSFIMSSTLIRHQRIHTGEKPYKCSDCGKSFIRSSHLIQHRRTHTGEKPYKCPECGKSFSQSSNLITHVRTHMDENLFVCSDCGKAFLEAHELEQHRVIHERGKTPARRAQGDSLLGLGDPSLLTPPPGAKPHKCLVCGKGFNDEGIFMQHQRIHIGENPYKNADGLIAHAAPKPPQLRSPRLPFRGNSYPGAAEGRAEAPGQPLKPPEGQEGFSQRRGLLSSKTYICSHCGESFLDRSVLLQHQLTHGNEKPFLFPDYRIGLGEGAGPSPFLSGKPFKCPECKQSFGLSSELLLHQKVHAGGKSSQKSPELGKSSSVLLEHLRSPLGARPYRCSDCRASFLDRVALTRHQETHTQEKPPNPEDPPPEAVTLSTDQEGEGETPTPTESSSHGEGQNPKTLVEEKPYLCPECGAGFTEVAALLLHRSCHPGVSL

These are yes or no findings as the source states them, for the method shown.

The target in this assay is biotin-labelled bls-CRBN (UniProt Q96SW2). Briefly: AlphaScreen or HTRF; AlphaScreen: biotinylated bls-CRBN mixture, FLAG-GST-substrate mixture and DMSO or 20 µM IMiDs; 100 mM Tris pH 8.0, 0.01% Tween20, 100 mM NaCl, 1 mg/mL BSA, 26 °C 1 h; anti-DYKDDDDK mAb, streptavidin donor and Protein A acceptor beads; wheat cell-free proteins. (In general: In Alpha technology, singlet oxygen from a donor bead excites a nearby acceptor bead.)
Turning to “FLAG-GST-FGFR1 (from UniProt P11362 1-822)”, the binding entry is “no binding (tested: tested with DMSO or 20 µM pomalidomide)”. As for “FLAG-GST-ZMYM4 (from UniProt Q5VZL5 1-1548)”, the entry is “no binding (tested: tested with DMSO or 20 µM IMiDs)”. Regarding “FLAG-GST-ZNF629 (from UniProt Q9UEG4 1-869)”, the binding result is listed as “no binding (tested: tested with DMSO or 20 µM IMiDs)”.
